The assay addresses T1, wild type (WT) Taspase1-GFP (human) (UniProt Q9H6P5).
T1 sequence: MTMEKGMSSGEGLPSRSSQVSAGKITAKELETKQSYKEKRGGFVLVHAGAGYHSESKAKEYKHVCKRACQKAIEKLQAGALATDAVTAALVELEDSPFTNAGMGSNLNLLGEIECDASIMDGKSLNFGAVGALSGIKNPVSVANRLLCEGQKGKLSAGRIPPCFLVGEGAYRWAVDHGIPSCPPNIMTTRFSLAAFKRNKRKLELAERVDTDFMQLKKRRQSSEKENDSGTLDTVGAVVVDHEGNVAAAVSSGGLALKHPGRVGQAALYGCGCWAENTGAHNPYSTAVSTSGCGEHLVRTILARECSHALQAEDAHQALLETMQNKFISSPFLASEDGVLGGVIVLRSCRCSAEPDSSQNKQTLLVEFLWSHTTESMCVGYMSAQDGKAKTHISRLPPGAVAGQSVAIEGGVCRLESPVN
The assay can be described thus: affinity purification with mass spectrometry; Taspase1-GFP immunoprecipitates (anti-GFP beads, HEK 293T) compared with GFP; LC-MS/MS, label-free quantification.

Protein sequences, listed by entry. Tags and fused reporters are not part of them.
UniProt P06748: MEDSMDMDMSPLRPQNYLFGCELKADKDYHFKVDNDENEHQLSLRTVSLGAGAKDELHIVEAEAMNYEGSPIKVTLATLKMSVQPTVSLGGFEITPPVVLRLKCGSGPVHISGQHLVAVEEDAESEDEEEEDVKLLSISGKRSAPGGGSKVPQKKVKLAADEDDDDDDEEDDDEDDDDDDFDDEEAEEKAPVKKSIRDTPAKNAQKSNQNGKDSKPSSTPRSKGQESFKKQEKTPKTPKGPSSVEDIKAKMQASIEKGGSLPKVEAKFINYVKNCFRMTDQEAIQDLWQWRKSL
UniProt Q02880: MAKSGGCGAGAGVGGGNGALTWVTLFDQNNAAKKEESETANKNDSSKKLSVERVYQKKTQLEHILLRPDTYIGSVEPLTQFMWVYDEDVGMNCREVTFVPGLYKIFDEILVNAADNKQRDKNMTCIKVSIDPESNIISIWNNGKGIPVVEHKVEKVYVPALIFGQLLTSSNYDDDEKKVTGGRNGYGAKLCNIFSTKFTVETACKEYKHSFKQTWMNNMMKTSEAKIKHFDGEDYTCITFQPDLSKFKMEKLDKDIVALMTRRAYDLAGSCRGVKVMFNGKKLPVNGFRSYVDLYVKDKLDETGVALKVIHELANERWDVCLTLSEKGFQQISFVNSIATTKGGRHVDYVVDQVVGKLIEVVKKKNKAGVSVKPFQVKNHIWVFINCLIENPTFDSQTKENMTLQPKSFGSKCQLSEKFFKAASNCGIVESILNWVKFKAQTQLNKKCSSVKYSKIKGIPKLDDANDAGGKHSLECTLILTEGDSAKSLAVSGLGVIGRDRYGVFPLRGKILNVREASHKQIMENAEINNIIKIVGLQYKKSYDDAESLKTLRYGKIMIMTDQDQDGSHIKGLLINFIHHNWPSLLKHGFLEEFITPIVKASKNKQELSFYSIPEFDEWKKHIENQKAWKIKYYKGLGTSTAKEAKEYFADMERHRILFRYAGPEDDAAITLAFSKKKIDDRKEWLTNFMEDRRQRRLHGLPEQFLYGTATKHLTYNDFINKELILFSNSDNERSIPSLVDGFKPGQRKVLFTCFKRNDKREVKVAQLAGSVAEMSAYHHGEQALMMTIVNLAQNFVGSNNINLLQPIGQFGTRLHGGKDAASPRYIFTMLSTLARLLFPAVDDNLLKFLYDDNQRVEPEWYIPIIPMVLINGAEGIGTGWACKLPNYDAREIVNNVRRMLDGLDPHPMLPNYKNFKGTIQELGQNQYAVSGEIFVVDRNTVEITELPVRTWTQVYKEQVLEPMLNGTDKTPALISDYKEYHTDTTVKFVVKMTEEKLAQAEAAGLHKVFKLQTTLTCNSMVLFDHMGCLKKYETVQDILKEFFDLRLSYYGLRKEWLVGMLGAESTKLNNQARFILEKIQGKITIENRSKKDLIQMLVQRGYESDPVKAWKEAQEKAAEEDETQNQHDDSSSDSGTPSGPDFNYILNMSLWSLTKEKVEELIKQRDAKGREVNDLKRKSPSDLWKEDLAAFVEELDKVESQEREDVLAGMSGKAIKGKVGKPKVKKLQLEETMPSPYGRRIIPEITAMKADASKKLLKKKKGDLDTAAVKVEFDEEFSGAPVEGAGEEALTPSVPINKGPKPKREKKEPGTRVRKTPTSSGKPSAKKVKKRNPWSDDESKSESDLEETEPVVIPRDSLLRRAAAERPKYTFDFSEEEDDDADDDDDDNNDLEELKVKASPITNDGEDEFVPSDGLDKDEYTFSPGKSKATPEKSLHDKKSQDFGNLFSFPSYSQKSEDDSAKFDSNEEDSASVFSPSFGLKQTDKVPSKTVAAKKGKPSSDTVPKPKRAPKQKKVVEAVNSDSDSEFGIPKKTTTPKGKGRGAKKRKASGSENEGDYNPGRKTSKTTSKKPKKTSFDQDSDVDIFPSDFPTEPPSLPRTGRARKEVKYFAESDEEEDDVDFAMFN

Results are given in words; binding and its absence hold for the method and conditions named. In cells and extracts the contact can be indirect. A yes stands for co-enrichment or nearness to the bait. Other partners may have been found. Tags and fused reporters may be left off the sequences shown.

This is an account of results in paper PMC9913075.

On to “Nucleophosmin1 (NPM1) (from UniProt P06748 1-294)”, for which the binding result is listed as “binds”.
The value for “Topoisomerase IIβ (Topo IIβ), endogenous (from UniProt Q02880 1-1626) (enzyme)” was “binds”.
